# Values from PubChem BioAssay AID1259425 (University of Nebraska Medical Center, 2018).
# Screen: 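Compare each knockdown with KSR1 silencing using changes in marker transcripts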 (primary screen)
# Cells: HCT116 human colon cancer cells
# Reagents: siRNA pool against human genes, 50 nM siRNA
# Measurement: 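mRNA of six signature genes measured together by branched-DNA assay after 50 nM siRNA pool, blank removed, divided by geometric mean of two housekeeping genes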
# Direction: BNIP3L mRNA: higher = more BNIP3L transcript after knockdown; NDRG1 mRNA: higher = more NDRG1 transcript after knockdown; BNIP3 mRNA: higher = more BNIP3 transcript after knockdown; ALDOC mRNA: higher = more ALDOC transcript after knockdown; ACSL5 mRNA: higher = more ACSL5 transcript after knockdown
# Here is a random part of about 14,000 reagents tested. The record does not give: the time to read-out.
The first 2 entries, ahead of the listing:
Gene,"BNIP3L mRNA, set 1","NDRG1 mRNA, set 1","BNIP3 mRNA, set 1","ALDOC mRNA, set 1","ACSL5 mRNA, set 1"
WNT6 (Wnt family member 6),0.0627,0.285,0.265,0.0133,0.221
TRAPPC10 (trafficking protein particle complex subunit 10),0.115,0.21,0.311,0.035,0.407

The listing, from the first entry:
Gene,"BNIP3L mRNA, set 1","NDRG1 mRNA, set 1","BNIP3 mRNA, set 1","ALDOC mRNA, set 1","ACSL5 mRNA, set 1"
WNT6 (Wnt family member 6),0.0627,0.285,0.265,0.0133,0.221
TRAPPC10 (trafficking protein particle complex subunit 10),0.115,0.21,0.311,0.035,0.407
FLJ10232 (retired record),0.45,0.834,0.685,0.0764,0.316
"GIMAP6 (GTPase, IMAP family member 6)",0.267,0.124,0.543,0.0513,0.503
OPHN1 (oligophrenin 1),0.0769,0.0619,0.188,0.0226,0.11
NEIL1 (nei like DNA glycosylase 1),0.213,0.151,0.306,0.0134,0.421
CNOT6L (CCR4-NOT transcription complex subunit 6 like),0.1,0.285,0.289,0.0116,0.239
GNLY (granulysin),0.0637,0.344,0.381,0.0198,0.128
TSPAN14 (tetraspanin 14),0.19,0.217,0.275,0.0618,0.185
IRS2 (insulin receptor substrate 2),0.0944,0.18,0.241,0.016,0.0979
NKX6-1 (NK6 homeobox 1),0.0548,0.116,0.238,0.017,0.235
FOXJ3 (forkhead box J3),0.154,0.161,0.496,0.00676,0.188
VAX1 (ventral anterior homeobox 1),0.131,0.0382,0.279,0.0302,0.0913
GUCA2B (guanylate cyclase activator 2B),0.0799,0.0766,0.108,0.0129,0.0663
GCHFR (GTP cyclohydrolase I feedback regulator),0.0718,0.239,0.232,0.038,0.175
WEE1 (WEE1 G2 checkpoint kinase),0.0796,0.295,0.381,0.0149,0.245
GYPA (glycophorin A (MNS blood group)),0.0982,0.132,0.208,0.00836,0.141
CBL (Cbl proto-oncogene),0.0512,0.0929,0.225,0.0243,0.0869
SOX11 (SRY-box transcription factor 11),0.201,0.874,0.436,0.0685,0.229
GMEB1 (glucocorticoid modulatory element binding protein 1),0.0745,0.0699,0.385,0.00362,0.0976
DUSP16 (dual specificity phosphatase 16),0.0569,0.135,0.29,0.0286,0.217
P3H3 (prolyl 3-hydroxylase 3),0.19,0.423,0.749,0.0733,0.233
CLDN5 (claudin 5),0.104,0.349,0.214,0.0112,0.222
NIFK (nucleolar protein interacting with the FHA domain of MKI67),0.187,0.475,0.315,0.0152,0.373
"TNNT1 (troponin T1, slow skeletal type)",0.0653,0.274,0.278,0.0341,0.167
CCL18 (C-C motif chemokine ligand 18),0.0676,0.119,0.217,0.0192,0.172
MRPS9 (mitochondrial ribosomal protein S9),0.0513,0.148,0.43,0.0217,0.151
SOS1 (SOS Ras/Rac guanine nucleotide exchange factor 1),0.0763,0.784,0.302,0.0305,0.194
KCNS2,0.146,0.401,0.252,0.0179,0.141
ZNF302 (zinc finger protein 302),0.0856,0.131,0.469,0.0375,0.21
VMP1 (vacuole membrane protein 1),0.0578,0.552,0.364,0.0428,0.391
HIP1R (huntingtin interacting protein 1 related),0.157,0.162,0.299,0.0577,0.143
ZIC4 (Zic family zinc finger 4),0.131,0.134,0.331,0.124,0.31
CHRD (chordin),0.102,0.223,0.374,0.021,0.0794
